Measured values from PubChem BioAssay AID1671190 (National Center for Advancing Translational Sciences (NCATS), 2021).
The list shows a part of the results, in another mix than the full data. Results filed as inconclusive are left out. Active and inactive are the calls of the source. The call rests on the fitted dose curve; in most records, active means well fitted inhibition curve with a large enough effect; inconclusive means small, poorly fitted or top-dose-only effect, or another doubt; inactive means no such curve, though single readings can be large or run the other way.

Amino acid sequences for entries named in this document (tags omitted). A change or cut given only in a name is not applied to a line headed by its entry.
UniProt P18054: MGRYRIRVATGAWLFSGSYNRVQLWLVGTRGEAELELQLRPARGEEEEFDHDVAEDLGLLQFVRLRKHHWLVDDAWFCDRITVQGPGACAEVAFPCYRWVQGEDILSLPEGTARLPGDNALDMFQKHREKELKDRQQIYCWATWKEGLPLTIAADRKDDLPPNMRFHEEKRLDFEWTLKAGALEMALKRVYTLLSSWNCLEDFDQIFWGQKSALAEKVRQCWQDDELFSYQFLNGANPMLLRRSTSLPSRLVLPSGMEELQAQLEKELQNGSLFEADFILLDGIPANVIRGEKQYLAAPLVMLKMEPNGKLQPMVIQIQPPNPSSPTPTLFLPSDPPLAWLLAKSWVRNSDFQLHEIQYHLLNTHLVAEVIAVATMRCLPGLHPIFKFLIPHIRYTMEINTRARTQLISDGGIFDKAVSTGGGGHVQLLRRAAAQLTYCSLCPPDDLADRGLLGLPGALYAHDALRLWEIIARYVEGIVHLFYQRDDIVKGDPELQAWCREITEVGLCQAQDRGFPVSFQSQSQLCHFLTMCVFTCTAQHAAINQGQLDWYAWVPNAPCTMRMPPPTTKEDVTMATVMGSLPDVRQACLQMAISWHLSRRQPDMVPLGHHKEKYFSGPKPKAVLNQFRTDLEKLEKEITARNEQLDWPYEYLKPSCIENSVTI

Molecular target: Polyunsaturated fatty acid lipoxygenase ALOX12 (Homo sapiens) (UniProt P18054)
Experiment: Primary qHTS assay for inhibitors of human arachidonate 12S-lipoxygenase (ALOX12): Round 2
Details: purified 12hLO, xylenol orange hydroperoxide absorbance
Excerpt: Assay Provider: Theodore R. Holman Ph.D. University of California, Santa Cruz, California Human lipoxygenase 12hLO is a member of the closely related lipoxygenase family of enzymes which catalyze the site-specific oxidation of arachidonic acid to various hormone precursor molecules and as such is a candidate for drug development in a variety of disease areas, such as cancer and inflammation. Inhibition of 12hLO activity was screened by utilizing arachidonic acid as a substrate. The extent of hydroperoxide product formation was measured by a secondary chromogenic reaction in which xylenol orange (XO, Sigma-Aldrich, cat. number 39,818-7) reacts with the ferric ions produced from the reaction between the hydroperoxide and ferrous ions. The Fe (III)-XO complex is characterized with red-shifted absorbance at 560 nm. A purified preparation of human 12hLO was supplied by Dr. Holman laboratory, University of California, Santa Cruz.
PROTOCOL TABLE SEQUENCE No. (e.g., 1, 2, 3, etc.); […] (e.g., Cells, Incubation, Reagent, etc.); VALUE; DESCRIPTION 1; Enzyme; 3 uL; 150 nM 12hLO enzyme solution dispensed in 1536-well Greiner black, clear bottom plates. 2; Compound; 23 nL; compounds and controls were added. 3; Incubate; 15 min; room temperature. 4; Substrate; 1 uL; 40 uM arachidonic acid (final concentration). 5; Incubate; 30 min; room temperature. 6; Reagent; 4 uL; Fe-XO solution was added to each well. 7; Incubation; 30 min; room temperature 8; Detector; absorbance; Read 1 at 405 nm absorbance using ViewLux (Perkin-Elmer) CCD imager. 9; Detector; absorbance; Read 2 at 573 nm absorbance using ViewLux (Perkin-Elmer) CCD imager. NOTES (numbers refer to sequence above) 1; 150 nM 12hLO (final concentration) in buffer solution (25 mM Hepes, 0.01% Triton X-100, pH 7.0) was dispensed in columns 1, 2, 5-48. Column 1 is neutral (100% activity). Buffer only was dispensed in columns 3 and 4 as no enzyme negative controls. The plates were covered with metal lids with gas-exchange holes. 2; Compounds were pin transferred via a Kalypsys Pin Tool (Wako USA) in column 5-48. Control compound was transferred in column 2, titration of nordihydroguaiaretic acid (NDGA, Sigma-Aldrich, N5023) with top concentration of 20 mM in DMSO then 1:3 dilution in duplicate. Dilution factor of 23 nL into 4 uL final assay volume. 3; Covered assay plates were incubated for 15 min at room temperature. 4; Substrate was added to start the reaction; 40 uM arachidonic acid (Sigma-Aldrich, St. Louis, MO) was dispensed throughout the plate. […] 8, 9; Two absorbance readouts were obtained at 405 nm and at 573 nm using a ViewLux high-throughput CCD plate imager (Perkin-Elmer). The 573 to 405 (Read 2 / Read 1) absorbance ratio was used to compute reaction progress.
Potency means the concentration at half of the fitted maximal effect.

Potency, active:
C/C(CC1CC2=C(CC1(C)C)C(C)(C)CCC2)=N\NC(N)=S (centres undefined) 15.8 µM
C=CCn1c(=S)[nH]c2scc(-c3ccco3)c2c1=O 39.8 µM
CCc1ccc(-n2cccc2/C=C2/C(=N)N3C(=NC2=O)SN=C3S(C)(=O)=O)cc1 50.1 µM
O=C1CSc2cc(Cl)ccc2N1 35.5 µM
